From publication PMC9889408
Results are given in words; binding and its absence hold for the method and conditions named.

Chains of the proteins cited; added tags and fusions are not shown.
UniProt P03372: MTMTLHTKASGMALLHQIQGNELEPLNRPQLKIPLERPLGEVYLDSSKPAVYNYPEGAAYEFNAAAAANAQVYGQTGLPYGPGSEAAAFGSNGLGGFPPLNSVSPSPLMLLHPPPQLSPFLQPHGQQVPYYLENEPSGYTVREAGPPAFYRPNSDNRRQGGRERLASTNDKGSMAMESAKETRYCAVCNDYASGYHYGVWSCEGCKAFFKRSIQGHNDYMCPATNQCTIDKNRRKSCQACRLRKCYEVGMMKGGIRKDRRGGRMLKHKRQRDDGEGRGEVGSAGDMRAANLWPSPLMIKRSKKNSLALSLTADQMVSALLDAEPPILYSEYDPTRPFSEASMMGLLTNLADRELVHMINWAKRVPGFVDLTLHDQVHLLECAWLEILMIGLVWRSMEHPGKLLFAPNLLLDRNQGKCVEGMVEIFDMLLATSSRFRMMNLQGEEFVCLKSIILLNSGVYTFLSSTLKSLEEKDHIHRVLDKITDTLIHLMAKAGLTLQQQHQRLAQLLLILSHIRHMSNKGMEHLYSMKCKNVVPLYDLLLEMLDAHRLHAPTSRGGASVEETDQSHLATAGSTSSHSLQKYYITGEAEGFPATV

Molecular target: T1, Recombinant forkhead box protein A1 (FoxA1) (UniProt P55317)
T1 sequence: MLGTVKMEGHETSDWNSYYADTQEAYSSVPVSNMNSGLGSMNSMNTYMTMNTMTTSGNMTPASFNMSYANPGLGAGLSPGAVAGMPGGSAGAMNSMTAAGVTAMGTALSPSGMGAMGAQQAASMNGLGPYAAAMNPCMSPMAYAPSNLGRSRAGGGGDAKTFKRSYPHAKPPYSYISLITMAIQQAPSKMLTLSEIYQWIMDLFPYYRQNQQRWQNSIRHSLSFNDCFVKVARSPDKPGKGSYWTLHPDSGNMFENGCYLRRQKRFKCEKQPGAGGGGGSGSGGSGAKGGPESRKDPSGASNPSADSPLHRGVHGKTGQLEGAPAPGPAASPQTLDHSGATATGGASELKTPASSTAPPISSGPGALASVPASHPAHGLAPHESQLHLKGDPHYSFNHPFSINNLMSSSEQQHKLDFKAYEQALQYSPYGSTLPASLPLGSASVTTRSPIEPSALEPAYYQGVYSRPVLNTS
Experiment: immobilized template assay; recombinant FoxA1 and ERα mixed with an immobilised DNA template having the FoxA1 binding sequence; precipitated fractions analysed by western blotting; both purified

“Recombinant estrogen receptor alpha (ERα) (from UniProt P03372 1-595) (other; other documents disagree on this pair)” was tested, and the binding was “no binding”.
